From patent US20210261944, “Compositions and methods for ordered and continuous complementary DNA (cDNA) synthesis across non-continuous templates” (The Regents of the University of California, published 2021)

System: T1, BomoC(ed) R2 RT (deltaN274, D996A) (Bombyx mori)
T1 sequence (limits assumed): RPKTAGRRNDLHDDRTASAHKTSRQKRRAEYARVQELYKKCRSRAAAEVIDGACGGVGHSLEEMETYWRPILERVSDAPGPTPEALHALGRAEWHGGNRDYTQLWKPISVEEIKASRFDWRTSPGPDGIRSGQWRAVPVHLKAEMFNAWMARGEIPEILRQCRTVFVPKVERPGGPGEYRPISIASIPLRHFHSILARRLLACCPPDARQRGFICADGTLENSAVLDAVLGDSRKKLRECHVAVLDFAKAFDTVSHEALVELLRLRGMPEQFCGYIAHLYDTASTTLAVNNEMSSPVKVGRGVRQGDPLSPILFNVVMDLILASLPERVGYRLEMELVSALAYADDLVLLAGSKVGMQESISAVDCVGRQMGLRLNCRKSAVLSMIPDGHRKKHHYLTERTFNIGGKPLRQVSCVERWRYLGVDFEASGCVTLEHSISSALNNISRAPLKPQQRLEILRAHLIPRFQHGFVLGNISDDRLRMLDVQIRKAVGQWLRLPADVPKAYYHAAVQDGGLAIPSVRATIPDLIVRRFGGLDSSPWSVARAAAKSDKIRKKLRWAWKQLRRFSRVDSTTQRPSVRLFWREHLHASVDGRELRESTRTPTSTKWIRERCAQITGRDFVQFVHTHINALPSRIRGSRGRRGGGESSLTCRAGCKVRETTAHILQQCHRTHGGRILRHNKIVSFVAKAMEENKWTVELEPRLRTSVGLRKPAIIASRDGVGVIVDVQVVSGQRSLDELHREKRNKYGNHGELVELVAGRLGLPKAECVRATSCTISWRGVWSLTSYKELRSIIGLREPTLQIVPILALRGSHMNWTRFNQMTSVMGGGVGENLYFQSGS
Assay: binding assay
Conditions: 5' phosphate; last 6 nt ribonucleotides; 3' adaptor template for low-PCR library; Mg2+, 37C; purified recombinant protein; protein details: N-terminal MBP, C-terminal 6xHis

Does “ACACTCTTTCCCTACACGACGCTCTTCCGATCTC [low-PCR adaptor template c3t(uni)]” bind?
Result: binds

Construct, isoform or probe ends are uncertain for at least one entry. Tags and fusion partners may be left off the protein sequences shown.
